The text below walks through data of PMC3846853.

The target in the assay is T1, M-cadherin (mouse (endogenous in Ric10)) (UniProt P33146).
T1 sequence: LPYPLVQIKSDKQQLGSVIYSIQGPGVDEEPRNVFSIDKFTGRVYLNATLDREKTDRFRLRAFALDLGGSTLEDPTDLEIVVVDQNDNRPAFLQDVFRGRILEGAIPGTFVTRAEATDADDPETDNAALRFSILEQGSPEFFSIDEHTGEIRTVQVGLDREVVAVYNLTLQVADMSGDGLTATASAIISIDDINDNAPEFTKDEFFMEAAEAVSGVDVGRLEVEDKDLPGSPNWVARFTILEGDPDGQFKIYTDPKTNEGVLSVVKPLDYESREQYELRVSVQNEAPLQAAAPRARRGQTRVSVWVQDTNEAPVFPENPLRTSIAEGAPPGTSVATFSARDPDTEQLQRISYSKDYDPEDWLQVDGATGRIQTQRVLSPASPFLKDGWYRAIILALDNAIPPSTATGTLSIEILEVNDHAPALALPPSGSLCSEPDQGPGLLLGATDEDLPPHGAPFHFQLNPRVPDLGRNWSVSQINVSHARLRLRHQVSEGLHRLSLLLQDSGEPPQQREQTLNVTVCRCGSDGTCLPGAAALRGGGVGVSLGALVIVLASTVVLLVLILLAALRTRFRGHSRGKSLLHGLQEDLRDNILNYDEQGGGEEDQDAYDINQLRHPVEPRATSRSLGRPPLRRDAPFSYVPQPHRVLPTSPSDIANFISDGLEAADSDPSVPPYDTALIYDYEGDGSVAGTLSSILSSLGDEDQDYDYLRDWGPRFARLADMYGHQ
The experiment in a line: co-IP; anti-M-cadherin immunoprecipitation (Pierce Crosslink Magnetic IP/Co-IP Kit) from total lysates of Ric10 cells, immunoblot for p120; cells growing (pmGM) or differentiating (pmDM), with 0.1% DMSO or 100 uM NSC23766 for 24 h. A general note: Immunoblotting shows a protein as a band on a membrane.

These are yes or no findings as the source states them, for the method shown. Binding seen in cells or lysates may run through a third protein. Some entries that bind do so weakly or less than the wild type.

B1: p120 catenin (protein, UniProt P30999 1-938)
chain: MDDSEVESTASILASVKEQEAQFEKLTRALEEERRHVSAQLERVRVSPQDANSLMANGTLTRRHQNGRFVGDADLERQKFSDLKLNGPQDHNHLLYSTIPRMQEPGQIVETYTEEDPEGAMSVVSVETTDDGTTRRTETTVKKVVKTMTTRTVQPVPMGPDGLPVDASAVSNNYIQTLGRDFRKNGNGGPGPYVGQAGTATLPRNFHYPPDGYGRHYEDGYPGGSDNYGSLSRVTRIEERYRPSMEGYRAPSRQDVYGPQPQVRVGGSSVDLHRFHPEPYGLEDDQRSMGYDDLDYGMMSDYGTARRTGTPSDPRRRLRSYEDMIGEEVPPDQYYWAPLAQHERGSLASLDSLRKGMPPPSNWRQPELPEVIAMLGFRLDAVKSNAAAYLQHLCYRNDKVKTDVRKLKGIPILVGLLDHPKKEVHLGACGALKNISFGRDQDNKIAIKNCDGVPALVRLLRKARDMDLTEVITGTLWNLSSHDSIKMEIVDHALHALTDEVIIPHSGWEREPNEDCKPRHIEWESVLTNTAGCLRNVSSERSEARRKLRECDGLVDALIFIVQAEIGQKDSDSKLVENCVCLLRNLSYQVHREIPQAERYQEALPTVANSTGPHAASCFGAKKGKDEWFSRGKKPTEDPANDTVDFPKRTSPARGYELLFQPEVVRIYISLLKESKTPAILEASAGAIQNLCAGRWTYGRYIRSALRQEKALSAIAELLTSEHERVVKAASGALRNLAVDARNKELIGKHAIPNLVKNLPGGQQNSSWNFSEDTVVSILNTINEVIAENLEAAKKLRETQGIEKLVLINKSGNRSEKEVRAAALVLQTIWGYKELRKPLEKEGWKKSDFQVNLNNASRSQSSHSYDDSTLPLIDRNQKSDKKPDREEIPMSNMGSNTKSLDNNYSTLNERGDHNRTLDRSGDLGDMEPLKGAPLMQKI
Consider B1, for which the binding entry is “binds”.
